Source: PubChem BioAssay AID1159584 (Peter MacCallum Cancer Centre, 2016)

- Test: 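Genes whose loss is lethal only together with E-cadherin loss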 (primary screen)
- Cell system: human MCF10A breast epithelial cells, parental and CDH1-null
- Knock-down reagent: siRNA against human genes
- Measured: 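Cell viability by CellTiter-Glo ATP luminescence, each line scaled to the mean of mock wells across plates, then CDH1-null over parental ratio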
- Reading the numbers: CDH1-null / parental viability ratio: higher = CDH1-null cells survive relatively better than parental; CDH1-null viability vs mock: higher = more viable CDH1-null cells; parental viability vs mock: higher = more viable parental cells
In all, the deposit lists about 18,000 reagents; shown is a part drawn at random. The record does not give: the amount of reagent, the time to read-out.

gene,CDH1-null / parental viability ratio,CDH1-null viability vs mock (fraction of mock),parental viability vs mock (fraction of mock)
CAND1,1.25,1.15,0.92
PRPF18,1.04,0.5,0.48
ZNF813,0.8,0.8,1
NOD1,0.87,0.76,0.87
SATL1,1.07,1.04,0.97
GPAT4,1.16,1.02,0.88
ICMT,0.76,0.63,0.83
GAL3ST1,0.98,0.86,0.88
RASD2,1.13,0.86,0.76
NKAP,1.47,0.78,0.53
STAG1,0.84,0.69,0.82

Records above whose gene name begins with N or n:
gene,CDH1-null / parental viability ratio,CDH1-null viability vs mock (fraction of mock),parental viability vs mock (fraction of mock)
NOD1,0.87,0.76,0.87
NKAP,1.47,0.78,0.53

The listing continues.
gene,CDH1-null / parental viability ratio,CDH1-null viability vs mock (fraction of mock),parental viability vs mock (fraction of mock)
AP2M1,1.19,0.62,0.52
HIP1R,1.16,0.88,0.76
CHRNB3,1.16,1.14,0.98
RNF217,0.92,0.94,1.02
SYNJ2,1.23,0.87,0.71
APAF1,1.76,0.86,0.49
ACSS3,0.98,0.91,0.93
SLC26A9,0.88,0.77,0.88
RPL9,1.56,0.53,0.34
CAP1,0.91,0.8,0.88
ATG9A,1.67,0.7,0.42
CTXN3,0.96,0.94,0.98
CHRM3,1.49,0.79,0.53
SKI,0.88,0.84,0.96
APOL3,1.03,0.97,0.94
ONECUT1,0.99,0.97,0.98
FPGT,1.06,0.84,0.79
